Data source: PubChem BioAssay AID1053208 (Peter MacCallum Cancer Centre, 2014)
This is a random part of about 17,000 reagents tested. 788 of all reagents (4.7%) were called active. 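Calls rest on z-score classes alone; an extra cut-off of viability at most 70% of control was not applied to them.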 The numbers tell different reagents against one gene apart. Not all columns of the deposit are shown.

- Aim: 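Genes whose silencing cuts survival of bone tumour cells only with doxorubicin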 (primary screen)
- Cells: mouse osteosarcoma cells, early-passage culture from an engineered mouse model of fibroblastic bone tumour
- Reagents: siRNA pool against mouse genes, 40 nM
- Duration: about 120 h (48 h before drug, then 72 h with drug)
- Treatment: doxorubicin 100 nM for 72 h, roughly 30-40% inhibitory dose
- Detection: 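Luminescent ATP signal taken as viability with or without 100 nM doxorubicin for 72 h; mean of two wells set against non-targeting siRNA and turned into robust z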
- Scale: viability z-score with doxorubicin: higher = more viable cells under doxorubicin; viability z-score without drug: higher = more viable cells with knock-down alone
- Hit rule: 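Called active if knock-down leaves viability unchanged without drug (z within -2 to 2) but lowers it with doxorubicin (z at or under -2)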

Which result is listed for 9330175E14Rik (GeneID 320377) #1?
combined z-score class: no change with or without drug; viability z-score with doxorubicin: 0.11; viability z-score without drug: 0; call: inactive

For 9330175E14Rik (GeneID 320377) #2, what does the deposit list?
combined z-score class: no change with or without drug; viability z-score with doxorubicin: -0.34; viability z-score without drug: -0.51; call: inactive

With Pcdhb5 (GeneID 93876), what was measured?
combined z-score class: no change with or without drug; viability z-score with doxorubicin: 1.46; viability z-score without drug: 1.52; call: inactive

Which result is listed for Plxnc1 (GeneID 54712)?
combined z-score class: no change with or without drug; viability z-score with doxorubicin: 0.45; viability z-score without drug: -0.51; call: inactive

For C1qtnf7 (GeneID 109323), how do the results read?
combined z-score class: no change with or without drug; viability z-score with doxorubicin: 0.9; viability z-score without drug: 0.67; call: inactive

For Ppp1r14bl (GeneID 66755), what was measured?
combined z-score class: high cell count without drug only; viability z-score with doxorubicin: 0.45; viability z-score without drug: 3.71; call: inactive

How did the screen score Fadd (GeneID 14082)?
combined z-score class: no change with or without drug; viability z-score with doxorubicin: -0.56; viability z-score without drug: 0.67; call: inactive

What did the screen give for Zdhhc6 (GeneID 66980)?
combined z-score class: no change with or without drug; viability z-score with doxorubicin: -0.34; viability z-score without drug: -0.17; call: inactive

Which result is listed for Caskin1 (GeneID 268932)?
combined z-score class: no change with or without drug; viability z-score with doxorubicin: -1.35; viability z-score without drug: -0.17; call: inactive

With Pdcd5 (GeneID 56330), what was measured?
combined z-score class: no change with or without drug; viability z-score with doxorubicin: 0.22; viability z-score without drug: 0.17; call: inactive

What is on record for Tmem115 (GeneID 56395)?
combined z-score class: no change with or without drug; viability z-score with doxorubicin: 0.67; viability z-score without drug: 0.84; call: inactive

How did the screen score Wfdc1 (GeneID 67866)?
combined z-score class: no change with or without drug; viability z-score with doxorubicin: -0.45; viability z-score without drug: 0.17; call: inactive

How did the screen score Clasrp (GeneID 53609)?
combined z-score class: no change with or without drug; viability z-score with doxorubicin: 0; viability z-score without drug: 0.51; call: inactive

What is on record for Btbd35f1 (GeneID 71847)?
combined z-score class: no change with or without drug; viability z-score with doxorubicin: -0.67; viability z-score without drug: -0.84; call: inactive

Which result is listed for Or6p1 (GeneID 258756)?
combined z-score class: high cell count without drug only; viability z-score with doxorubicin: 0.9; viability z-score without drug: 2.02; call: inactive

With Tmed10 (GeneID 68581), what was measured?
combined z-score class: no change with or without drug; viability z-score with doxorubicin: -1.8; viability z-score without drug: -0.51; call: inactive

Which result is listed for Oas2 (GeneID 246728)?
combined z-score class: no change with or without drug; viability z-score with doxorubicin: -0.22; viability z-score without drug: 0.51; call: inactive

Which result is listed for Itga2b (GeneID 16399)?
combined z-score class: no change with or without drug; viability z-score with doxorubicin: -0.22; viability z-score without drug: -1.35; call: inactive

With Pter (GeneID 19212), what does the deposit list?
combined z-score class: no change with or without drug; viability z-score with doxorubicin: 1.35; viability z-score without drug: -0.51; call: inactive

Individual results from the list.
Caskin1 (GeneID 268932), viability z-score with doxorubicin: -1.35
Entry for Pcdhb5 (GeneID 93876) in “viability z-score without drug”: 1.52
